Measured values reported in publication PMC11554683.
These are yes or no findings as the source states them, for the method shown. Binding seen in cells or lysates may run through a third protein. Some binding calls cover weakened binding; strength is not graded here.

Protein sequences, listed by entry. Tags and fused reporters are not part of them.
UniProt P25025: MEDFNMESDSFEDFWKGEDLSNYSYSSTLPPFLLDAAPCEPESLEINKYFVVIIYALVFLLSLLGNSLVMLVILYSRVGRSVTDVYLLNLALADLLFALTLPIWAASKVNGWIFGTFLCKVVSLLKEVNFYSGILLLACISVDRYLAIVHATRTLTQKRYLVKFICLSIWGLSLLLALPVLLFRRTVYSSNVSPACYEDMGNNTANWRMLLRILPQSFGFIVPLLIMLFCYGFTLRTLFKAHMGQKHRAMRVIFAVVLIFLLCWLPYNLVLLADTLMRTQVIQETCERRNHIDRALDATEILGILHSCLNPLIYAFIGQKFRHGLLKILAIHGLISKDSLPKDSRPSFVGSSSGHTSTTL
UniProt P63218: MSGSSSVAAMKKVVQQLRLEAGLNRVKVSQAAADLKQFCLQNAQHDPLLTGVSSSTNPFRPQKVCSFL

Biological target: C-X-C chemokine receptor type 2 (CXCR2) (human (endogenous in 293T)) (UniProt P25025)
Assay: co-IP; membrane proteins of 293T-GNG5^OE cells; immunoprecipitation with anti-CXCR2; western blot

human recombinant protein GNG5-FLAG (from UniProt P63218 1-68)
binding: binds
